Source: publication PMC9769526

Target: T1, AtrR-TAP fusion protein (full-length AtrR fused at its C terminus to the tandem affinity purification moiety) (Aspergillus fumigatus) (UniProt Q4WI89)
T1 sequence: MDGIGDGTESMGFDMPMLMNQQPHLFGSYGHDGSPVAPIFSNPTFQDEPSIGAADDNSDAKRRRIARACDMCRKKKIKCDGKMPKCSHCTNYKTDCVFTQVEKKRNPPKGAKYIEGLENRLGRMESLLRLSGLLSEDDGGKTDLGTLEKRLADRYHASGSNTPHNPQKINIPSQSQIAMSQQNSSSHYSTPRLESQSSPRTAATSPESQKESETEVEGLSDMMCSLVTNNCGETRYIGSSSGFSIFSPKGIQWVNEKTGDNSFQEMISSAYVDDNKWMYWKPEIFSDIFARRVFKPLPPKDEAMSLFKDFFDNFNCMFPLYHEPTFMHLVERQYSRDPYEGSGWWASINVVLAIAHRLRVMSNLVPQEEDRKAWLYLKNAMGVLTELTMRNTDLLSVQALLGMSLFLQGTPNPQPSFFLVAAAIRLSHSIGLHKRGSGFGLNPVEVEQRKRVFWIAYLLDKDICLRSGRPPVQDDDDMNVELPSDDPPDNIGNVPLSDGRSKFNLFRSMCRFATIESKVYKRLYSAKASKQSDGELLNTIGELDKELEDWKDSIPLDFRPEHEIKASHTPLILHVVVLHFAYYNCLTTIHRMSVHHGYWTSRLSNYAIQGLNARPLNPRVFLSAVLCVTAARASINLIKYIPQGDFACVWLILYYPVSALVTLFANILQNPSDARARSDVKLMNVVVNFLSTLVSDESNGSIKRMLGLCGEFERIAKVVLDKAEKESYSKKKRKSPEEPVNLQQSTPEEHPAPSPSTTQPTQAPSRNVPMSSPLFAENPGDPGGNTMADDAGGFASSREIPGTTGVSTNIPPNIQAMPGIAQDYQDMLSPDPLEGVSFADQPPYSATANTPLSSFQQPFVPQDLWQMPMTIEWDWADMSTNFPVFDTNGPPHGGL
Test: affinity purification with mass spectrometry; tandem affinity purification of AtrR-TAP from native A. fumigatus extracts (B250 buffer, 250 mM NaCl, 0.1% NP-40; IgG-Sepharose, TEV cleavage, calmodulin-Sepharose, EGTA elution), copurifying proteins detected by MudPIT

B1: NcaA (nuclear coactivator of AtrR) (protein, UniProt Q4WN10 1-575)
chain: MAETTPSRPNDTPENSPGGGDDNQSQSAGQSKNPASVKDRKCQYCHQAFTSSSLGRHLDQYLFKKKPDGVHDVEEIRRIRSGITRRQARTSSGKRDTPERAMGKGPSEHFAGGEYGAKPREGAIRMMFNTPTWHATGVINDIPNPGQTPEGSRFATSQSRTGVIHLPDYASRGASAKDPDTMRALELALREVLDNIKAATSRMRPRLSPFDFDIQSETFPSLCLRLLPPPPSLFSTNPFPSPSSFPLKPPGVEHLDIVRQAIRAKIDQWQSDQLSTQSANNSPGRPPLGLDANMISRSAQQHEDMSLRHLELAFKHWASLPPETRLEAWHLEITRAFAREVEKRKTLDEQLARVQQEANQLRAQVEKLGSCQWPREFALFPPDTLPLPPAVARELDAKESQISPGSPRWDYDSVVAKWKRVVMHDKSMGRVGVGYGNPPLDDRSSADTKARATEEPPASAALASTSTSAPPSAHPPPRALQPAPGPALAASPDQSSSHTGGASAPSSQNTSPYLRSPQAGPQAKRPRLMNGADGGHTSAANPSATAPNTWNPHSHQSLPGSNLASASGPPPSSGA
binding: binds

Results are given in words; binding and its absence hold for the method and conditions named. Binding seen in cells or lysates may run through a third protein. Here binding means that the protein was enriched with, or labelled near, the bait; the list need not be complete. Tags and fused reporters may be left off the sequences shown.
